Where “and” joins values, the source holds several entries; their conditions need not be identical. Equal values may be shown once. Inconclusive results, whose numbers are uncertain, are shown with a selection of clear calls. Calls of active or inactive are those of the source.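 How the source made its calls: active means every replicate run active, meaning lowered signal with potency within ten times the top valid dose; inconclusive means runs neither all active nor all inactive; inactive means all replicate runs inactive, including opposite-direction effects.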
test: growth inhibition of HsHsp90-dependent yeast, dose response, counter-screen for P. falciparum Hsp90 inhibitor project, plate reader, dry powder samples (AID 588404); conditions: S. cerevisiae expressing HsHsp90, growth, BacTiter-Glo 48 h; at 150 µM (top of the series) unless noted

| SMILES | activity change, negative = inhibition |
| --- | --- |
| O=C(CSCC(=O)N1CCCCC1)Nc1nc(-c2ccc(Cl)s2)cs1 | inconclusive: -65% |
| Cc1ccc(OCc2n[nH]c(=S)n2C2CCCCC2)cc1 | inconclusive: -65% |
| Cc1ccc(N2C(=O)C3C4C=CC(CNC(=S)Nc5cccc(Cl)c5)(O4)C3C2=O)cc1 (stereo not drawn) | inconclusive: -102% |
| O=C1C(Cl)=C(NCCc2ccccc2)C(=O)c2ccccc21 | inactive: 20.9% |
| Cc1ccc(N2C(=O)C3C4C=CC(CNC(=S)Nc5ccc(F)cc5)(O4)C3C2=O)cc1 (stereo not drawn) | inconclusive: -99.5% |
| Cc1ccc(O)c(NC(=S)NC(=O)c2ccc(-c3ccc(Cl)cc3)o2)c1 | inconclusive: -101% [at 26 µM] |
| Nc1c2ccccc2nc2ccccc12 (tested in a mixture with another compound) | inconclusive: -103% and inconclusive: -102% |
| COc1ccc2c(c1)C=C(C(=O)NCc1ccc(Cl)cc1)CO2 | inconclusive: -97.4% |
